In article doi:10.1101/2024.09.26.615147:
No constants are given. Whether binding was seen depends on the method and setting. In cells and extracts the contact can be indirect. Some entries that bind do so weakly or less than the wild type.

Chains of the proteins cited; added tags and fusions are not shown. Lines headed by an entry give the natural chain unless they say otherwise; changes in a name come on top. A line that says so, or that is headed by a name, gives the form on record, which may keep a tag or linker. Residues count along the entry.
UniProt P0A705: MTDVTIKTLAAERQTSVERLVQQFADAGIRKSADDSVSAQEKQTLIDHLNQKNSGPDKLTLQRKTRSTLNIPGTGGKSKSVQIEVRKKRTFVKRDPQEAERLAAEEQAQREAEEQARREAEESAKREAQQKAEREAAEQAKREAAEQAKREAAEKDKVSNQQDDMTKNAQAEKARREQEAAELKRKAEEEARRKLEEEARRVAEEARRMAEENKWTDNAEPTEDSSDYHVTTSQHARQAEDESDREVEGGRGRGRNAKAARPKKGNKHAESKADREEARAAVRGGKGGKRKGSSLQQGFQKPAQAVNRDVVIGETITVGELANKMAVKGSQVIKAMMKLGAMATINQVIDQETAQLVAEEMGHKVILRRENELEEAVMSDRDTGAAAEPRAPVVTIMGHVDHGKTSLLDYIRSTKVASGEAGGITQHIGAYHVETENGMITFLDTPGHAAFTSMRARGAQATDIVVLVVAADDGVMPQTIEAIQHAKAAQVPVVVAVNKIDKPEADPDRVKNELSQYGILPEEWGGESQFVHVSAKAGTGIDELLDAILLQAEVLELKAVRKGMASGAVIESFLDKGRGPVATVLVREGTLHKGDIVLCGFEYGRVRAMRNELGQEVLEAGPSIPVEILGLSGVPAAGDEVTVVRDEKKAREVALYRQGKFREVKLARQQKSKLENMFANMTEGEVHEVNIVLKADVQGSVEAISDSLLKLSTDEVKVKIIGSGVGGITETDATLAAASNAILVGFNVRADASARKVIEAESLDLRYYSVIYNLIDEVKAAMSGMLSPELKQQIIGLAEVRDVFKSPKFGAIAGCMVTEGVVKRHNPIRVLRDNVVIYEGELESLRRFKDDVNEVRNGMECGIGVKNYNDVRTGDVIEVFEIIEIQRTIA
6His-IF2γ (translation initiation factor IF2, isoform γ, polyhistidine-tagged): residues 165-890 of P0A705

Key:
[1] = target: 6His-IF2α (translation initiation factor IF2, isoform α, polyhistidine-tagged) (E. coli) (UniProt P0A705); assay: pull-down
[2] = target: 6His-IF2γ (translation initiation factor IF2, isoform γ, polyhistidine-tagged) (E. coli) (UniProt P0A705); assay: pull-down

binding [1]: binds
binding [2]: no binding
Substance: NusA-HaloTag (transcription factor NusA with HaloTag fused at the chromosomal locus) (from UniProt P0AFF6 1-495)
